Assay results published in patent US20190241666A1.
These are yes or no findings as the source states them, for the method shown. Some results given as binding are weak or reduced against the parent protein; the word gives no strength.

Chains of the proteins cited; added tags and fusions are not shown. Residues count along the entry.
UniProt P35968, residues 20-764: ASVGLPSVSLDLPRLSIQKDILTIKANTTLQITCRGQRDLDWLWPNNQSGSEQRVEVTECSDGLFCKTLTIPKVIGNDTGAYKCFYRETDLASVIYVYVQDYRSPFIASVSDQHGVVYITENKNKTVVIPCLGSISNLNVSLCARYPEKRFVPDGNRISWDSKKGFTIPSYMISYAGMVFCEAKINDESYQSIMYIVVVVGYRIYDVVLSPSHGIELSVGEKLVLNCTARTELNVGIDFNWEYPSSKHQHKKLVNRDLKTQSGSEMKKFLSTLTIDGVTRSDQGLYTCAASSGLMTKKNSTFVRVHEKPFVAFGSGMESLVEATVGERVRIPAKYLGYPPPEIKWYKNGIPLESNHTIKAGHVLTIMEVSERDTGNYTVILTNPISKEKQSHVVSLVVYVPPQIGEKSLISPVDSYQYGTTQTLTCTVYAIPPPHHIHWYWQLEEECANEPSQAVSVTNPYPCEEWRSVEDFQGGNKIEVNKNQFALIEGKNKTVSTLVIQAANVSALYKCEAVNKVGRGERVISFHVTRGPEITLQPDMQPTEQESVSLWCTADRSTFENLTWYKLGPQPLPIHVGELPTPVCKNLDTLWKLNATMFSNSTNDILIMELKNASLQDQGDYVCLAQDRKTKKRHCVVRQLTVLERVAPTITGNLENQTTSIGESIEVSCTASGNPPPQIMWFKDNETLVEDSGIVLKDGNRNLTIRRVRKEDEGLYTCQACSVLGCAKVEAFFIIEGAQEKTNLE

Legend:
[1] = target: VEGFR2-ECD Fc fusion protein (human) (UniProt P35968); assay: ELISA, purified Fab on plates coated with VEGFR2-ECD Fc protein
[2] = target: human VEGFR2 (as used in the ELISAs of Example 2) (human) (UniProt P35968); assay: ELISA
[3] = target: human VEGFR2 (as used in the ELISAs of Example 2) (human) (UniProt P35968); assay: ELISA, eight 1:4 dilutions from 800 ng/well

B1: 1A10 Fab protein (clone from the OPAL phage library, expressed in E. coli ER2537) (Fab, V domains shown)
VH: EVQLLESGGGLVQPGGSLRLSCAASGFTFSDYDMSWVRQAPGKGLEWVSSIYPGDSSTYYADSVKGRFTISRDNSKNTLYLQMNSLRAEDTAVYYCAKEEVAFDYWGQGTLVTVSS
VL: QSVLTQPPSASGTPGQRVTISCTGSSSNIGNYYVYWYQQLPGTAPKLLIYANSHRPSGVPDRFSGSKSGTSASLAISGLRSEDEADYYCATWDASLSGYVFGGGTKLTVL
binding [1]: binds

B2: 1A10 antibody (IgG-converted) (antibody, V domains shown)
VH: B1 VH
VL: B1 VL
binding [2]: binds | binding [3]: binds
